# Results are given in words; binding and its absence hold for the method and conditions named. For some assays here: Binding can be weak; no strength is given.
# B1: PAC1 (PAPP-A exosite antibody, scFv) (scFv)
# scFv: EVQLLESGGGLVQPGGSLRLSCAASGFTFSSYAMSWVRQAPGKGLEWVSVITDMGRTTRYADSVKGRFTISRDNSKNTLYLQMNSLRAEDTAVYYCAKGLRQFDYWGQGTLVTVSSGGGGSGGGGSGGGGSTDIQMTQSPSSLSASVGDRVTITCRASQSISSYLNWYQQKPGKAPKLLIYHASQLQSGVPSRFSGSGSGTDFTLTISSLQPEDFATYYCQQYGGNPTTFGQGTKVEIKRAAAHHHHHHGAAEQKLISEEDLNGAA
# notes: Selected from the Tomlinson I+J phage libraries and produced in E. coli HB2151; Purified scFv was used in SPR and cleavage assays; also called scFv PAC1; antibody PAC1
# Assays:
# [1] = target: PAPP-A(dLNR3-C), mutant of human PAPP-A truncated on the N-terminal side of LNR3 (human); experiment: ELISA
# PAPP-A(P2-CCP1-C) = experiment: ELISA, chimera captured with polyclonal PAPP-A antibodies
# PAPP-A(P2-CCP2-C) = experiment: as above
# PAPP-A(P2-CCP3-4) = experiment: as above
# PAPP-A(P2-CCP3-C) = experiment: as above
# PAPP-A(P2-CCP4-C) = experiment: as above
# PAPP-A(P2-CCP5-C) = experiment: as above
# PAPP-A(P2-LNR3) = experiment: as above
binder,measurement,setting,value
B1,binding,[1],no binding
same,binding,PAPP-A(P2-CCP1-C),no binding
same,binding,PAPP-A(P2-CCP2-C),no binding
same,binding,PAPP-A(P2-CCP3-4),binds
same,binding,PAPP-A(P2-CCP3-C),no binding
same,binding,PAPP-A(P2-CCP4-C),no binding
same,binding,PAPP-A(P2-CCP5-C),no binding
same,binding,PAPP-A(P2-LNR3),no binding
